Assay results: PubChem BioAssay AID743255 (National Center for Advancing Translational Sciences (NCATS), 2014)
The campaign covered roughly 390,000 compounds. About 910 (0.23%) were called active. The shares of active, inactive and inconclusive entries below differ from those in the screen. The call rests on the fitted dose curve; in most records, active means well fitted inhibition curve with a large enough effect; inconclusive means small, poorly fitted or top-dose-only effect; inactive means no such curve, though single readings can be large or run the other way. Where the call is inconclusive, the potency comes from a doubtful curve fit.

Amino acid sequences for entries named in this document (tags omitted). A change or cut given only in a name is not applied to a line headed by its entry.
UniProt O94782: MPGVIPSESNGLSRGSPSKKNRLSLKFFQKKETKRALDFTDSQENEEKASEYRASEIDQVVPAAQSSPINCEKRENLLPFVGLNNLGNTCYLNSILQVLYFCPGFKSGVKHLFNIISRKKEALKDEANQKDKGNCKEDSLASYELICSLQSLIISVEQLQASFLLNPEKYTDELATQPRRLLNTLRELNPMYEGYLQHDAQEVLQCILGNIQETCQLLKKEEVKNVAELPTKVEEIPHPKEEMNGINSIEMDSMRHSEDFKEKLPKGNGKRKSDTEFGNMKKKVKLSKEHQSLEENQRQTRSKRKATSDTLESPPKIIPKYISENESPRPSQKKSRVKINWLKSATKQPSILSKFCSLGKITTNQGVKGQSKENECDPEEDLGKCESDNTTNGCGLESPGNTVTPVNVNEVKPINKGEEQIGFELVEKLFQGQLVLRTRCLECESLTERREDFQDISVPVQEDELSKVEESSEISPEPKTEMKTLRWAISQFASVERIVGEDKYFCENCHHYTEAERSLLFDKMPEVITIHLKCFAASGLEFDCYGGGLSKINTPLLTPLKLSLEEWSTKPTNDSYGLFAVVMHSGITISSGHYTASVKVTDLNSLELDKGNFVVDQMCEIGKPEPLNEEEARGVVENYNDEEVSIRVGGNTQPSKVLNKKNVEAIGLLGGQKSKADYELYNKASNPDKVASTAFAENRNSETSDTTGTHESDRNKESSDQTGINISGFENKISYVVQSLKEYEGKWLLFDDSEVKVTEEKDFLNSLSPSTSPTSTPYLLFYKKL

target: Ubiquitin carboxyl-terminal hydrolase 1 (Homo sapiens) (UniProt O94782); test: Inhibitors of USP1/UAF1: Primary Screen; details: recombinant USP1/UAF1, Ub-Rhodamine cleavage fluorescence; activity change, negative = inhibition: at 57.1 µM (top of the series); further: nearly all actives have a fitted effect of over 60% in size
Method in brief: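 USP1/UAF1 complex (1 nM) preincubated 15 min at room temperature with compound, then Ub-Rho substrate (150 nM final) added. Kinetic fluorescence at 480/540 nm over 6 reads at 60 s intervals; 50 mM HEPES pH 7.8, 0.5 mM EDTA, 0.1 mg/ml BSA, 1 mM TCEP, 0.01% Tween-20.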
On the % scale 0 is the no-effect control and ±100 the full control effect; potency means the concentration at half of the fitted maximal effect.

Potency, inconclusive:
COc1ccc(C(=O)CN2CCN(c3ccc(Cl)cc3)CC2)cc1OC 11.2 µM [inhibitor, partial curve, poor fit]
COc1ccccc1C(c1c(O)nc(SC)[nH]c1=O)c1c(O)nc(SC)[nH]c1=O 2.24 µM [inhibitor, partial curve]
Cc1ccc(CN2C(=O)N(c3ccccc3)C(=O)C2CC(=O)Nc2ccccc2)cc1 (stereo not drawn) 2.82 µM [inhibitor, full curve]
O=C(NCCS(=O)(=O)N1CCN(c2ccc(F)cc2)CC1)C1CC(=O)N(c2ccccc2)C1 (stereo not drawn) 50.1 µM [inhibitor, partial curve, poor fit]
COc1ccc(Cn2nnnc2CN2CCc3ccccc32)cc1 7.08 µM [inhibitor, single point]
CCCCNc1ccc(C(CC(N)=O)NC(=O)Cc2cccc3ccccc23)cc1[N+](=O)[O-] (stereo not drawn) 35.5 µM [inhibitor, partial curve, poor fit]
C/C(=N/Nc1ccc(C(=O)c2c(C)cc3ccccn23)cc1[N+](=O)[O-])c1ccc(O)cc1 35.5 µM [inhibitor, single point]
COc1ccc(Cc2nn3c(-c4ccccc4OC)nnc3s2)cc1 44.7 µM [inhibitor, partial curve, poor fit]
CS/C(N)=N/N=C/c1c(O)ccc2ccccc12 28.2 µM [inhibitor, partial curve]
CCOc1ccc(NC(=O)c2cc3cc4cc(OC)ccc4nc3s2)cc1 3.16 µM [inhibitor, full curve]
CN(N)c1nc(C(F)(F)F)nc2ccccc12 6.31 µM [inhibitor, single point]
Cc1cc(C)nc(NS(=O)(=O)c2ccc(NC(=O)CN3C(=O)S/C(=C\c4ccccc4)C3=O)cc2)n1 22.4 µM [inhibitor, partial curve]
COC(=O)C(C)Sc1nnc(Cc2cc(=O)[nH]c(=O)[nH]2)n1-c1cc(C)ccc1C (stereo not drawn) 0.708 µM [inhibitor, full curve, poor fit]
COc1ccc(OC)c(NC(=O)CSC2=NN3CCCC(=O)N=C3S2)c1 7.08 µM [inhibitor, partial curve, poor fit]

Two consecutive records from above:
Potency, inconclusive:
CCOc1ccc(NC(=O)c2cc3cc4cc(OC)ccc4nc3s2)cc1 3.16 µM [inhibitor, full curve]
CN(N)c1nc(C(F)(F)F)nc2ccccc12 6.31 µM [inhibitor, single point]

Following part.

Activity change, negative = inhibition, inactive:
O=C(O)c1ccccc1C(=O)Nc1nccs1 -8.48%
O=C(CN1C(=O)COc2ccc(S(=O)(=O)N3CCCCCC3)cc21)NCCc1ccccc1 -7.57%
Cc1ccc(-c2nnc(Nc3ccc(O)cc3)c3ccccc23)cc1S(=O)(=O)N1CCCCC1 -22.1%
Cc1ccc(N=C2NC(=O)CS2)c(C)c1 -14.8%
